# Assay results as given in article PMC4410478, “Larvicidal activity and possible mode of action of four flavonoids and two fatty acids identified in Millettia pinnata seed toward three mosquito species” (Parasites & Vectors, 2015).
# Assays:
# Assay in all cases: direct-contact mortality bioassay
# Conditions in all cases: probit slope, 24 h exposure
# [1] = system: third instar Culex pipiens pallens larvae
# [2] = system: third instar Aedes aegypti larvae
# [3] = system: third instar larvae from wild Aedes albopictus
Molecule,Slope ± SE [1],Slope ± SE [2],Slope ± SE [3]
"CCCCCCCCCCCCCCCCCCCC(=O)O [Arachidic acid, arachidic acid]",3.9 ± 0.45,3.8 ± 0.45,3.5 ± 0.38
"CCCCCCCCCCCCCCCCCCCCCC(=O)O [Behenic acid, behenic acid]",6.5 ± 0.84,6.1 ± 1.20,4.9 ± 0.59
"CCCCCCCC/C=C/CCCCCCCC(=O)O [Elaidic acid, elaidic acid]",3.9 ± 0.42,3.8 ± 0.44,3.1 ± 0.43
"COP(=S)(OC)Oc1ccc(SC)c(C)c1 [Fenthion, fenthion, reference compound]",3.5 ± 0.44,3.6 ± 0.43,1.5 ± 0.29
"COc1c(-c2ccccc2)oc2c3c(ccc2c1=O)OC(C)(C)C=C3 [Karanjachromene (2), karanjachromene]",3.3 ± 0.42,2.9 ± 0.40,2.7 ± 0.41
"COc1c(-c2ccccc2)oc2c(ccc3occc32)c1=O [Karanjin (1), karanjin]",2.2 ± 0.30,2.2 ± 0.26,3.1 ± 0.41
"CCCCC/C=C\C/C=C\CCCCCCCC(=O)O [Linoleic acid, linoleic acid]",2.2 ± 0.29,2.1 ± 0.29,3.0 ± 0.78
"CC/C=C\C/C=C\C/C=C\CCCCCCCC(=O)O [Linolenic acid, linolenic acid]",2.3 ± 0.30,2.4 ± 0.31,2.9 ± 0.78
"CCCCCCCC/C=C\CCCCCCCC(=O)O [Oleic acid (3), oleic acid]",3.2 ± 0.41,3.0 ± 0.40,3.2 ± 0.41
"CCCCCCCCCCCCCCCC(=O)O [Palmitic acid (4), palmitic acid]",3.6 ± 0.48,4.6 ± 0.62,4.5 ± 0.63
"O=c1c2c(oc3c1ccc1occc13)COc1ccccc1-2 [Pongarotene (6), pongarotene]",2.6 ± 0.34,3.6 ± 0.44,3.1 ± 0.43
"COP(=S)(OC)Oc1ccc(Sc2ccc(OP(=S)(OC)OC)cc2)cc1 [Temephos, temephos, reference compound]",2.0 ± 0.30,2.6 ± 0.32,4.1 ± 0.46
pongamol [Pongamol (5)],2.6 ± 0.33,2.7 ± 0.34,2.8 ± 0.33
